According to patent US8236540B2, “Isolated luciferases and the use thereof” (Bayer Intellectual Property GmbH, priority 2000, dated 2012):

B1: Lu22: coelenterazine-dependent secreted luciferase from Metridia longa, amino acid sequence SEQ ID NO: 6 (protein, listed as Metridia longa)
chain: MGVKLIFAVVCVAVAQAATIQENFEDIDLVAIGGSFASDVDANRGGHGGHPGKKMPKEVLMEMEANAKRAGCHRGCLVCLSHIKCTAQMQKFIPGRCHSYAGDKDSAQGGIAGGAIVDIPEIAGFKEMKPMEQFIAQVDLCEDCTTGCLKGLANVHCSDLLKKWLPSRCKTFASKIQSQVDTIKGLAGDR
B2: LuAL: coelenterazine-dependent secreted luciferase from Metridia longa, amino acid sequence SEQ ID NO: 2 (protein, listed as Metridia longa)
chain: MDMRVIFALVFSSLVQAKSTEFDPNINIVGLEGKFGITNLETDLFTIWETMDVIKSDITDTDRVSNFVATETDANRGKMPGKKLPLAVIMEMEANAFKAGCTRGCLICLSKIKCTAKMKVYIPGRCHDYGGDKKTGQAGIVGAIVDIPEISGFKEMAPMEQFIAQVDLCATCTTGCLKGLANVKCSELLKKWLPGRCASFADKIQKEVHNIKGMAGDR
B3: Lu164: coelenterazine-dependent secreted luciferase from Metridia longa, amino acid sequence SEQ ID NO: 4 (protein, listed as Metridia longa)
chain: MDIKVVFTLVFSALVQAKSTEFDPNIDIVGLEGKFGITNLETDLFTIWETMEVMIKADIADTDRASNFVATETDANRGKMPGKKLPLAVIMEMEANAFKAGCTRGCLICLSKIKCTAKMKVYIPGRCHDYGGDKKTGQAGIVGAIVDIPEISGFKEMAPMEQFIAQVDRCASCTTGCLKGLANVKCSELLKKWLPDRCASFADKIQKEVHNIKGMAGDR

How the values were obtained:
[1] = tested on: CHO cells; test: Secretion of the luciferases from CHO cells (luciferase activity in the medium over time); format: cell-based; details: activity in medium 0 h to 5 h
[2] = Dependence of the luciferase activity on the temperature (CHO cell supernatants); format: biochemical; details: CHO cell supernatant, measured between 0 and 47° C., 9.5 kV for 30 seconds
[3] = Emission spectra of the luciferases following bacterial expression; format: biochemical, E. coli BL21(DE3); details: bacterial lysate 100 μl + 50 μl coelenterazine (10^-4 M)
[4] = tested on: bacterial cells; test: Secretion of the luciferases in connection with bacterial expression; format: cell-based

Row | Molecule | secretion on expression in eukaryotic (CHO) cells [1] | temperature optimum for the luciferase activity [2] | wavelength of maximum emission resulting from the substrate transformation [3] | secretion in connection with bacterial expression [4] | temperature optimum for the luciferase activity ([2]; listed as Lu1 64)
1 | Firefly luciferase: Firefly luciferase used as a positive control for nonsecreted luciferase [reference compound] | not secreted | – | – | – | –
2 | B1 | secretory luciferases; also recorded: secreted | ≤ 4 °C | about 490 nm | No secretion | –
3 | B2 | secretory luciferases; also recorded: secreted | 27 °C and 22 °C | about 490 nm | No secretion | –
4 | B3 | secretory luciferases; also recorded: secreted | 22 °C | about 490 nm | No secretion | 27 °C

Values joined by “and” are separate entries in the source; they are usually repeats but may differ in a detail not shown here. Equal values may be shown once. “Also recorded” adds a separate entry of the source.
